Experimental data from paper PMC10238197, “Deafness‐Associated ADGRV1 Mutation Impairs USH2A Stability through Improper Phosphorylation of WHRN and WDSUB1 Recruitment” (Advanced Science, 2023).
Where a chain is given by its changes, count along the chain named. No constants are given. Whether binding was seen depends on the method and setting. In cells and extracts the contact can be indirect. Some binding calls cover weakened binding; strength is not graded here. Tags and fused reporters may be left off the sequences shown.

The chains behind the UniProt entries cited, without tags or fusion partners. Residues count along the entry.
UniProt Q8VHN7, residues 4333-6298: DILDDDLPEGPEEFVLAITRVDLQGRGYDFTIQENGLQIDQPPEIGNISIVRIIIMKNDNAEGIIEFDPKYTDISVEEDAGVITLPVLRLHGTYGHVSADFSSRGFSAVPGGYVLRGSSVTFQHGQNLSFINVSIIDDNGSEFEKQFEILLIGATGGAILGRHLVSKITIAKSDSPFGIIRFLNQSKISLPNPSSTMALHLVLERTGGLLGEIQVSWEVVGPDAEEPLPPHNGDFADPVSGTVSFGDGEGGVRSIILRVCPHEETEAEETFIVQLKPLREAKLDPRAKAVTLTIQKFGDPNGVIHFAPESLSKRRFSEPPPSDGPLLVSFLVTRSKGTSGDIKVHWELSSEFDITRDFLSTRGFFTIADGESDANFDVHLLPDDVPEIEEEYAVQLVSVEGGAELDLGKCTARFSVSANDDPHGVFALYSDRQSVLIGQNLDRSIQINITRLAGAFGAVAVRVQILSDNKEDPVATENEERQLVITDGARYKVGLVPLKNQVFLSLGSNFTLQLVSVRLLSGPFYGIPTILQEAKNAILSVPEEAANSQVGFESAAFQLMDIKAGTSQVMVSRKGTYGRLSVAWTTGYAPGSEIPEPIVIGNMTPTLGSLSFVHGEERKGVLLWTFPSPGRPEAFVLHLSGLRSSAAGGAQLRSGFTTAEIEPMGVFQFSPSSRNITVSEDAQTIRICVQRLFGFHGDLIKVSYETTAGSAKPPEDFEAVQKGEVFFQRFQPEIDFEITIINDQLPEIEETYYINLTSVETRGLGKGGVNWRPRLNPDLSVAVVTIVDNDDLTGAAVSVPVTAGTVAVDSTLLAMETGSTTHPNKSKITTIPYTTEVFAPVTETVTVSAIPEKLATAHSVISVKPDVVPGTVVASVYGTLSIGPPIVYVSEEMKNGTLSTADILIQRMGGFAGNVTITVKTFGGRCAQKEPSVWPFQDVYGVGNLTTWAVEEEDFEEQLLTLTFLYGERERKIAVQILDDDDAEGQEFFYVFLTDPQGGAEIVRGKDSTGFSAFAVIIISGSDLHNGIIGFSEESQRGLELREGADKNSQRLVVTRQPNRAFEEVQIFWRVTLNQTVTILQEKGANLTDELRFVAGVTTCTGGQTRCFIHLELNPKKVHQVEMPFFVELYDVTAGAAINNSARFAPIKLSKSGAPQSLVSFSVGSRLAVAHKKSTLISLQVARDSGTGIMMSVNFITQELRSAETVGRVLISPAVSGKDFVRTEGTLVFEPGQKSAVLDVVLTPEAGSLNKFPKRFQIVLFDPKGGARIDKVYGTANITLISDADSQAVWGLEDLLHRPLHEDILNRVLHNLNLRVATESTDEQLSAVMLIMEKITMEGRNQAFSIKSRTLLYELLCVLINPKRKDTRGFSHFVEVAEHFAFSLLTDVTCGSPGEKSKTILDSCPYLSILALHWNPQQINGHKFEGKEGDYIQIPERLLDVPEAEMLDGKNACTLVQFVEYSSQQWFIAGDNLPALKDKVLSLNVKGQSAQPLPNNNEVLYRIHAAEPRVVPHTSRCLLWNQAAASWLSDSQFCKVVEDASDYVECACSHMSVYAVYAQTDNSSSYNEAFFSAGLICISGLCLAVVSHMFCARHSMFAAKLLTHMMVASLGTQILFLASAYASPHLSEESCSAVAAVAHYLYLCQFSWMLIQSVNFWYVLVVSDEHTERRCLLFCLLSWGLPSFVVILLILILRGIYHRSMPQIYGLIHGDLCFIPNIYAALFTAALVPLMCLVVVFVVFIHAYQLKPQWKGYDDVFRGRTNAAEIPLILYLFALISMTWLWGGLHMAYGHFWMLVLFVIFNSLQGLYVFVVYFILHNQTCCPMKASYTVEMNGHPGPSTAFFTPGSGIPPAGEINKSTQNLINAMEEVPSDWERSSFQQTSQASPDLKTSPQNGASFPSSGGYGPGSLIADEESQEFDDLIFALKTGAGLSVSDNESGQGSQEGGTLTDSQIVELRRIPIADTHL

Legend:
Assay in all cases: FRET or BRET; intermolecular FlAsH-BRET saturation in HEK293 cells: fixed amount of WHRN-Nluc, increasing ADGRV1-FlAsH or USH2A-FlAsH; 2.5 µM FlAsH-EDT2, 5 µM coelenterazine-h; net BRET Em530/Em485
[1] = molecular target: T1, WHRN-Nluc (L-Z2) E300A (mouse) (UniProt Q80VW5)
T1 sequence: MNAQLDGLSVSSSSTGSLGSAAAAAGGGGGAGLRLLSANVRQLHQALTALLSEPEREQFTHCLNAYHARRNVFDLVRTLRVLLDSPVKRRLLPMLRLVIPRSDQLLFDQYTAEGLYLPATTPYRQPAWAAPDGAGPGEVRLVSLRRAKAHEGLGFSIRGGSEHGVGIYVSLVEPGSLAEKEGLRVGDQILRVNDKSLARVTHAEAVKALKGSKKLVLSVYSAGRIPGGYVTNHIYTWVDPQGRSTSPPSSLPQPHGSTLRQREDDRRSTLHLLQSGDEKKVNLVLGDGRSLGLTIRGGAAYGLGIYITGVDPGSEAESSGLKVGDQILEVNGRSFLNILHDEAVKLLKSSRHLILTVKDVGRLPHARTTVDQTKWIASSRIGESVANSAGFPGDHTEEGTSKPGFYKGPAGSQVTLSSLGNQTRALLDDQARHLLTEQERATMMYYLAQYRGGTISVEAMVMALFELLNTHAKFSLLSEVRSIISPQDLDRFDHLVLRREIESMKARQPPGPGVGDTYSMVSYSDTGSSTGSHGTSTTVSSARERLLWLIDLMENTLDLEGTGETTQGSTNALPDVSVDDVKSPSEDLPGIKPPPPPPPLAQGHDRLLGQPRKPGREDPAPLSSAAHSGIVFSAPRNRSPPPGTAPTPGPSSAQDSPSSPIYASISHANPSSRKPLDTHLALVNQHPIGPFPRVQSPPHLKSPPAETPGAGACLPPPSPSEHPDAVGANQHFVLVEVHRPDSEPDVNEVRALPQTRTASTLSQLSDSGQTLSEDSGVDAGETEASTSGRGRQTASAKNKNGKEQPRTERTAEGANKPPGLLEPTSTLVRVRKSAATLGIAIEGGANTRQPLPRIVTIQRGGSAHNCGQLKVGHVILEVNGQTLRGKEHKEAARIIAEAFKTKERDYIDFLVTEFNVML

[2] = molecular target: T2, WHRN-Nluc (L-Z2) S290A (mouse) (UniProt Q80VW5)
T2 sequence: T1 sequence with S290A, A300E

[3] = molecular target: T3, WHRN-Nluc (L-Z2) K345A (mouse) (UniProt Q80VW5)
T3 sequence: T1 sequence with A300E, K345A

binding [1]: binds
binding [2]: binds
binding [3]: binds
Substance: ADGRV1-ICL3-FlAsH (from UniProt Q8VHN7 4333-6298) (receptor)
